Measured values: PubChem BioAssay AID662 (National Center for Advancing Translational Sciences (NCATS), 2007)
Some of the results follow. Shown are side measurements of this screen, not its main read-out; they come without a call. Most of these compounds were active or inconclusive in the main read-out, so they are no random draw. Words in brackets tell the shape of the fitted curve; partial curves, single points and poor fits give uncertain potencies.

Assay: Cell signaling CRE-BLA (Fsk stim)
Conditions: CHO CRE-bla reporter (cAMP response element driving beta-lactamase), forskolin EC10, beta-lactamase ratio; measured here: 460 nm blue channel
In short: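 CRE-bla CHO reporter cells treated with compound titration plus EC10 NKH 477 (water-soluble forskolin), incubated 3 h at 37 °C; CCF4 loading 2 h at room temperature, 460/530 nm emission ratio read, AC50 values derived for positive or negative modulators.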

Q: Which AC50 does the source give for `CC(=O)Nc1cccc(NC(=O)CSc2nnnn2C(C)C)c1` here?
A: The AC50 was 3.16 µM [falling, partial curve, poor fit].

Q: With `CC(=O)c1c(C)[nH]c(C(=O)CSc2nc3ccccc3c(=O)n2CCCN2CCOCC2)c1C` as the compound, how does the AC50 read?
A: The AC50 was 0.00398 µM [falling, full curve, poor fit].

Q: With `COc1ccc(C2CC(C(F)(F)F)n3nc(C(N)=O)c(Cl)c3N2)cc1OC` (centres undefined) as the compound, how does the AC50 read?
A: The AC50 was 12.6 µM [rising, single point].

Q: For `N#Cc1c(N)c(C#N)c(-c2ccc(O)cc2)c2c1CCCC2`, which AC50 is on record?
A: The AC50 was 12.6 µM [falling, single point].

Q: For `CCN(CC)CCN(Cc1cc2cc(C)ccc2[nH]c1=O)C(=O)Nc1ccccc1OC`, which AC50 is on record?
A: The AC50 was 0.02 µM [falling, full curve, poor fit].

Q: With `C=CCn1c(=N)c(C(=O)NCCCOC)cc2c(=O)n3ccccc3nc21` as the compound, how does the AC50 read?
A: The AC50 was 12.6 µM [rising, partial curve].

Q: For `O=c1cnc2cncnc2n1Cc1ccccc1`, which AC50 is on record?
A: The AC50 was 12.6 µM [rising, partial curve].

Q: For `CCc1ccccc1NC(=O)c1cnc2scc(C)n2c1=O`, which AC50 is on record?
A: The AC50 was 12.6 µM [rising, single point].

Q: Which AC50 does the source give for `Cc1ccc(-n2c(SCc3cn4ccsc4n3)nc3ccccc3c2=O)cc1` here?
A: The AC50 was 1.26 µM [rising, partial curve].

Q: For `CCC/C=C(\CCC)C(NS(=O)(=O)c1ccc(C(F)(F)F)cc1)c1ccccc1` (centres undefined), which AC50 is on record?
A: The AC50 was 2.51 µM [rising, full curve].

Q: With `CCOC(=O)/C(C#N)=C1/C=C(C)NC(c2ccccc2O)=N1` as the compound, how does the AC50 read?
A: Its AC50 is 0.126 µM [rising, full curve].

Q: Which AC50 does the source give for `COC(=O)CSc1nc2ccccc2c(=O)n1C` here?
A: The AC50 was 5.01 µM [falling, single point].

Q: Which AC50 does the source give for `O=C(CN1CCN(S(=O)(=O)c2ccc(Cl)cc2)CC1)Nc1ccc2c(c1)OCCO2` here?
A: The AC50 was 7.94 µM [falling, partial curve].

Q: Which AC50 does the source give for `CCCCOCCCn1c(-c2ccco2)nc2nc3ccccc3nc21` here?
A: The AC50 was 12.6 µM [rising, partial curve].

Q: Which AC50 does the source give for `CCCn1c(SCc2ccc(Cl)cc2)nc2c1c(=O)[nH]c(=O)n2C` here?
A: Its AC50 is 12.6 µM [rising, partial curve].

Q: Which AC50 does the source give for `CCCSc1nc2c(c(=O)[nH]c(=O)n2C)n1CCc1ccccc1` here?
A: Its AC50 is 3.16 µM [rising, full curve].

Q: With `O=C(COc1ccc(Cl)cc1Cl)NCc1ccncc1` as the compound, how does the AC50 read?
A: Its AC50 is 0.00316 µM [falling, full curve, poor fit].

Q: Which AC50 does the source give for `CCn1c(=O)cc(OCC(=O)NCCC(C)C)c2ccccc21` here?
A: The AC50 was 6.31 µM [rising, partial curve].

Q: With `CCNc1ncc2nc(-c3ccc(F)cc3)c(=O)n(-c3ccc(OC)cc3)c2n1` as the compound, how does the AC50 read?
A: Its AC50 is 2.51 µM [rising, full curve].

Q: With `COc1cccc(C2=CC(c3ccc(N(C)C)cc3)n3ncnc3N2)c1` (centres undefined) as the compound, how does the AC50 read?
A: Its AC50 is 12.6 µM [rising, partial curve].

Q: For `O=C(CCN1C(=O)C2C3C=CC(C3)C2C1=O)N1CCN(c2cccc(Cl)c2)CC1` (centres undefined), which AC50 is on record?
A: Its AC50 is 0.631 µM [rising, full curve].

Q: Which AC50 does the source give for `Nc1c(-c2ccccc2)n[nH]c1-c1ccccc1` here?
A: Its AC50 is 0.0158 µM [falling, full curve, poor fit].

Q: With `O=c1[nH]c2ccsc2c(=O)n1-c1ccc(F)c(Cl)c1` as the compound, how does the AC50 read?
A: The AC50 was 0.794 µM [rising, full curve, poor fit].

Q: Which AC50 does the source give for `Cn1c(CNc2nc(-c3ccccc3)cs2)nnc1SCC(=O)N1CCc2ccccc21` here?
A: The AC50 was 0.1 µM [falling, partial curve, poor fit].

Q: For `O=c1c2ccccc2nc(-c2ccco2)n1/N=C/c1ccco1`, which AC50 is on record?
A: The AC50 was 10 µM [rising, partial curve].

Q: With `COc1cccc(Cn2c(=S)[nH]c3ccc(N4CCOCC4)cc3c2=O)c1` as the compound, how does the AC50 read?
A: The AC50 was 15.8 µM [rising, partial curve].

Q: With `COc1ccc(C(=O)SC2=NCCS2)cc1OC` as the compound, how does the AC50 read?
A: Its AC50 is 2.51 µM [falling, partial curve, poor fit].

Q: Which AC50 does the source give for `O=c1[nH]n(CC2COC3(CCCCC3)O2)c(=O)c2ccccc12` (centres undefined) here?
A: Its AC50 is 25.1 µM [rising, single point].

Q: For `Cc1ccc(Cl)cc1N1CCN(C(=O)Cn2ccc3ccccc3c2=O)CC1`, which AC50 is on record?
A: The AC50 was 31.6 µM [falling, single point].

Q: Which AC50 does the source give for `c1ccc(Sc2nc(N3CCCCC3)nc(N3CCCCC3)n2)nc1` here?
A: Its AC50 is 1 µM [rising, partial curve].

Q: With `Cn1c(-c2ccccc2)cc(=O)c2ccccc21` as the compound, how does the AC50 read?
A: The AC50 was 12.6 µM [rising, single point].

Q: For `CC1=C(C(=O)N(C)C)C(c2cccc(Cl)c2)NC(=O)N1` (centres undefined), which AC50 is on record?
A: Its AC50 is 12.6 µM [rising, single point].

Q: For `O=C(O)CSc1nnc(Cn2nnc3ccccc32)n1CCc1ccccc1`, which AC50 is on record?
A: The AC50 was 10 µM [rising, partial curve].

Q: For `CN(C)c1ncc2nc(-c3cc(F)cc(F)c3)c(=O)n(C3CC3)c2n1`, which AC50 is on record?
A: Its AC50 is 12.6 µM [rising, partial curve].

Q: With `Cc1cccc(S(=O)(=O)C(C#N)c2nc3ccccc3nc2N2CCCC2)c1` (centres undefined) as the compound, how does the AC50 read?
A: The AC50 was 10 µM [rising, single point].

Q: With `CC(=O)NC(=S)c1c(N)n(Cc2ccccc2)c(=O)n(C)c1=O` as the compound, how does the AC50 read?
A: Its AC50 is 3.98 µM [falling, single point].

Q: For `Cc1cc(C)nc(-n2nc(C)cc2NC(=O)CN2CCc3ccccc3C2)n1`, which AC50 is on record?
A: Its AC50 is 7.94 µM [rising, partial curve].

Q: For `O=c1c(-c2cccs2)nc2cnc(Oc3ccccc3)nc2n1-c1ccccc1`, which AC50 is on record?
A: Its AC50 is 2 µM [rising, full curve].

Q: Which AC50 does the source give for `Cc1cc(NC(=O)COC(=O)C2CCN(S(=O)(=O)c3ccc(Cl)cc3)CC2)no1` here?
A: Its AC50 is 1 µM [falling, full curve].

Q: With `CCc1ccc(C(=O)CSC2=C(C#N)C(c3ccco3)C(C(C)=O)=C(C)N2)cc1` (centres undefined) as the compound, how does the AC50 read?
A: Its AC50 is 0.251 µM [rising, full curve, poor fit].

Q: Which AC50 does the source give for `O=C(O)CC(O)C(=O)O` (centres undefined) here?
A: Its AC50 is 0.00501 µM [falling, full curve, poor fit].

Q: Which AC50 does the source give for `Cc1cnc(CNc2nc(-c3ccc(C(=O)N(C)C)cc3)nc3ccccc23)cn1` here?
A: Its AC50 is 6.31 µM [rising, partial curve].

Q: Which AC50 does the source give for `Cc1cccn2c(=O)c(C=NCc3ccccc3)c(NCCO)nc12` here?
A: The AC50 was 10 µM [rising, single point].

Q: With `CCOC(=O)Cc1cc(=O)n(-c2nc3ccccc3s2)[nH]1` as the compound, how does the AC50 read?
A: The AC50 was 7.94 µM [falling, partial curve].

Q: With `COc1cccc(C(c2sc3ncnn3c2O)N2CCc3ccccc3C2)c1` (centres undefined) as the compound, how does the AC50 read?
A: Its AC50 is 12.6 µM [rising, partial curve].

Q: With `CCOC(=O)c1ccc(NC(=O)Nc2ccc3c4c(cccc24)C(=O)N3CC)cc1` as the compound, how does the AC50 read?
A: Its AC50 is 0.251 µM [rising, full curve].

Q: With `CCOCCCNC(=O)C1CCC(CNS(=O)(=O)c2ccc(F)cc2)CC1` (centres undefined) as the compound, how does the AC50 read?
A: The AC50 was 5.01 µM [falling, single point].

Q: Which AC50 does the source give for `CCNc1ncc2nc(-c3cccs3)c(=O)n(Cc3ccc(F)cc3)c2n1` here?
A: The AC50 was 3.16 µM [rising, full curve].

Q: For `COc1cccc(-c2cncnc2NCc2ccc(OC)cc2OC)c1`, which AC50 is on record?
A: Its AC50 is 10 µM [rising, single point].

Q: Which AC50 does the source give for `COC(=O)c1ccccc1NC(=O)c1ccccc1OC` here?
A: The AC50 was 12.6 µM [rising, single point].

Q: For `C=C(C)c1cccc(C(C)(C)NC(=O)Nc2ncccn2)c1`, which AC50 is on record?
A: The AC50 was 3.98 µM [rising, single point].

Q: With `CCOC(=O)C1CCN(c2ncnc3c2cnn3-c2ccccc2)CC1` as the compound, how does the AC50 read?
A: Its AC50 is 15.8 µM [rising, single point].

Q: With `COc1cccc2[nH]c3c(=O)n(CCN(C)C)cnc3c12` as the compound, how does the AC50 read?
A: Its AC50 is 15.8 µM [falling, partial curve].

Q: For `Cc1ccccc1Nc1nc(N)nc(CSc2nc3ccccc3c(=O)n2CCCO)n1`, which AC50 is on record?
A: Its AC50 is 5.01 µM [rising, partial curve].

Q: For `Cc1ccc(Br)cc1S(=O)(=O)N1CCN(c2ccccc2)CC1`, which AC50 is on record?
A: The AC50 was 10 µM [falling, single point].

Q: For `COc1ccc(C(C)=O)cc1COC(=O)c1c(C)noc1C`, which AC50 is on record?
A: Its AC50 is 5.01 µM [rising, partial curve].

Q: With `CCOc1ccccc1OCCn1nnc2ccccc21` as the compound, how does the AC50 read?
A: Its AC50 is 25.1 µM [rising, single point].

Q: Which AC50 does the source give for `O=C(c1ccc2nc(N3CCCCC3)sc2c1)N1CCN(c2ccccn2)CC1` here?
A: The AC50 was 10 µM [rising, partial curve].

Q: For `Cc1cccc(CN(C)CCc2ccccn2)c1`, which AC50 is on record?
A: Its AC50 is 0.00794 µM [falling, full curve].

Q: Which AC50 does the source give for `O=C(CCn1c(=O)[nH]c2ccsc2c1=O)N1CCN(c2cccc(Cl)c2)CC1` here?
A: The AC50 was 25.1 µM [rising, single point].

Q: Which AC50 does the source give for `CCOc1ccc(C(C)=O)cc1N1C(=O)C2C3C=CC(O3)C2C1=O` (centres undefined) here?
A: The AC50 was 15.8 µM [falling, partial curve, poor fit].

Q: For `O=c1cnc2cnc(Oc3ccccc3)nc2n1CCc1ccccc1`, which AC50 is on record?
A: Its AC50 is 12.6 µM [rising, partial curve].

Q: For `CC(=O)N1CCc2cc(S(=O)(=O)NC(C(=O)NC3CCCc4ccccc43)C(C)C)ccc21` (centres undefined), which AC50 is on record?
A: Its AC50 is 1.26 µM [falling, partial curve].

Q: With `Cc1cc(C)n2c(SCC(=O)Nc3ccccc3)nnc2n1` as the compound, how does the AC50 read?
A: Its AC50 is 10 µM [rising, partial curve].

Q: Which AC50 does the source give for `COC(=O)CSc1nc2ccccc2o1` here?
A: The AC50 was 31.6 µM [falling, single point].

Q: For `Cc1cc(C)c(OCC(=O)Nc2ccc3c(c2)OCO3)cc1C`, which AC50 is on record?
A: Its AC50 is 15.8 µM [falling, single point].

Q: With `Cc1cc(C)n(-c2ccc(C(=O)Nc3nc4ccccc4s3)cc2)n1` as the compound, how does the AC50 read?
A: Its AC50 is 3.16 µM [falling, partial curve, poor fit].

Q: With `CCOC(=O)COc1ccc2c(c1)c(C(=O)OCC)c(C)n2CC` as the compound, how does the AC50 read?
A: Its AC50 is 10 µM [rising, single point].

Q: Which AC50 does the source give for `CCOC(=O)c1sc2nc(N3CCCC3)c3c(c2c1N)CC(C)(C)OC3` here?
A: The AC50 was 3.16 µM [rising, partial curve].
